Test results: paper PMC5923485 (Viruses, 2018)
pEC50: −log10 of the molar value.

Tested on: RVFV MP12 ∆NSs-Luc
Test: microbe, parasite or virus in culture
Type: cell-based
Settings: Rift Valley fever virus, 18 h

Question: `C[S+]([O-])c1ccc(-c2nc(-c3ccncc3)c(-c3ccc(F)cc3)[nH]2)cc1` (stereo not shown) [SB203580] was tested. Which pEC50 did it give?
Answer: < 4.00
